In assay [1] the target is recombinant cohesin (c357), tetrameric (human). Description: mass photometry.
Assay [2] addresses HeLa cohesin (unlabelled cohesin-STAG1) (human (endogenous in HeLa)). Nature of the assay: single-molecule fluorescence imaging of DNA loop extrusion.

These are yes or no findings as the source states them, for the method shown. Binding can be weak; no strength is given.

B1: PDS5B (recombinant, unlabelled) (protein, UniProt Q9NTI5 1-1447)
chain: MAHSKTRTNDGKITYPPGVKEISDKISKEEMVRRLKMVVKTFMDMDQDSEEEKELYLNLALHLASDFFLKHPDKDVRLLVACCLADIFRIYAPEAPYTSPDKLKDIFMFITRQLKGLEDTKSPQFNRYFYLLENIAWVKSYNICFELEDSNEIFTQLYRTLFSVINNGHNQKVHMHMVDLMSSIICEGDTVSQELLDTVLVNLVPAHKNLNKQAYDLAKALLKRTAQAIEPYITNFFNQVLMLGKTSISDLSEHVFDLILELYNIDSHLLLSVLPQLEFKLKSNDNEERLQVVKLLAKMFGAKDSELASQNKPLWQCYLGRFNDIHVPIRLECVKFASHCLMNHPDLAKDLTEYLKVRSHDPEEAIRHDVIVSIVTAAKKDILLVNDHLLNFVRERTLDKRWRVRKEAMMGLAQIYKKYALQSAAGKDAAKQIAWIKDKLLHIYYQNSIDDRLLVERIFAQYMVPHNLETTERMKCLYYLYATLDLNAVKALNEMWKCQNLLRHQVKDLLDLIKQPKTDASVKAIFSKVMVITRNLPDPGKAQDFMKKFTQVLEDDEKIRKQLEVLVSPTCSCKQAEGCVREITKKLGNPKQPTNPFLEMIKFLLERIAPVHIDTESISALIKQVNKSIDGTADDEDEGVPTDQAIRAGLELLKVLSFTHPISFHSAETFESLLACLKMDDEKVAEAALQIFKNTGSKIEEDFPHIRSALLPVLHHKSKKGPPRQAKYAIHCIHAIFSSKETQFAQIFEPLHKSLDPSNLEHLITPLVTIGHIALLAPDQFAAPLKSLVATFIVKDLLMNDRLPGKKTTKLWVPDEEVSPETMVKIQAIKMMVRWLLGMKNNHSKSGTSTLRLLTTILHSDGDLTEQGKISKPDMSRLRLAAGSAIVKLAQEPCYHEIITLEQYQLCALAINDECYQVRQVFAQKLHKGLSRLRLPLEYMAICALCAKDPVKERRAHARQCLVKNINVRREYLKQHAAVSEKLLSLLPEYVVPYTIHLLAHDPDYVKVQDIEQLKDVKECLWFVLEILMAKNENNSHAFIRKMVENIKQTKDAQGPDDAKMNEKLYTVCDVAMNIIMSKSTTYSLESPKDPVLPARFFTQPDKNFSNTKNYLPPEMKSFFTPGKPKTTNVLGAVNKPLSSAGKQSQTKSSRMETVSNASSSSNPSSPGRIKGRLDSSEMDHSENEDYTMSSPLPGKKSDKRDDSDLVRSELEKPRGRKKTPVTEQEEKLGMDDLTKLVQEQKPKGSQRSRKRGHTASESDEQQWPEEKRLKEDILENEDEQNSPPKKGKRGRPPKPLGGGTPKEEPTMKTSKKGSKKKSGPPAPEEEEEEERQSGNTEQKSKSKQHRVSRRAQQRAESPESSAIESTQSTPQKGRGRPSKTPSPSQPKKNVRVGRSKQAATKENDSSEEVDVFQGSSPVDDIPQEETEEEEVSTVNVRRRSAKRERR
For the molecule B1, in assay [1], the binding result is “binds”.

B2: PDS5B labelled with JF646 (protein, UniProt Q9NTI5 1-1447)
chain: B1 chain
modifications: JF646-HaloTag ligand on the HaloTag
Take B2: the binding result in assay [2] was “binds”.

B3: PDS5A labelled with JF646 (protein, UniProt Q29RF7 1-1337)
chain: MDFTAQPKPATALCGVVSADGKIAYPPGVKEITDKITTDEMIKRLKMVVKTFMDMDQDSEDEKQQYLPLALHLASEFFLRNPNKDVRLLVACCLADIFRIYAPEAPYTSHDKLKDIFLFITRQLKGLEDTKSPQFNRYFYLLENLAWVKSYNICFELEDCNEIFIQLFRTLFSVINNSHNKKVQMHMLDLMSSIIMEGDGVTQELLDSILINLIPAHKNLNKQSFDLAKVLLKRTVQTIEACIANFFNQVLVLGRSSVSDLSEHVFDLIQELFAIDPHLLLSVMPQLEFKLKSNDGEERLAVVRLLAKLFGSKDSDLATQNRPLWQCFLGRFNDIHVPVRLESVKFASHCLMNHPDLAKDLTEYLKVRSHDPEEAIRHDVIVTIITAAKRDLALVNDQLLGFVRERTLDKRWRVRKEAMMGLAQLYKKYCLHGEAGKEAAEKVSWIKDKLLHIYYQNSIDDKLLVEKIFAQYLVPHNLETEERMKCLYYLYASLDPNAVKALNEMWKCQNMLRSHVRELLDLHKQPTSEANCSAMFGKLMTIAKNLPDPGKAQDFVKKFNQVLGDDEKLRSQLELLISPTCSCKQADICVREIARKLANPKQPTNPFLEMVKFLLERIAPVHIDSEAISALVKLMNKSIEGTADDEEEGVSPDTAIRSGLELLKVLSFTHPTSFHSAETYESLLQCLRMEDDKVAEAAIQIFRNTGHKIETDLPQIRSTLIPILHQKAKRGTPHQAKQAVHCIHAIFTNKEVQLAQIFEPLSRSLNADVPEQLITPLVSLGHISMLAPDQFASPMKSVVANFIVKDLLMNDRSTGEKNGKLWSPDEEVSPEVLAKVQAIKLLVRWLLGMKNNQSKSANSTLRLLSAMLVSEGDLTEQKRISKSDMSRLRLAAGSAIMKLAQEPCYHEIITPEQFQLCALVINDECYQVRQIFAQKLHKALVKLLLPLEYMAIFALCAKDPVKERRAHARQCLLKNISIRREYIKQNPMATEKLLSLLPEYVVPYMIHLLAHDPDFTRSQDVDQLRDIKECLWFMLEVLMTKNENNSHAFMKKMAENIKLTRDAQSPDESKTNEKLYTVCDVALCVINSKSALCNADSPKDPVLPMKFFTQPEKDFCNDKSYISEETRVLLLTGKPKPAGVLGAVNKPLSATGRKPYVRSTGTETGSNINVNSELNPSTGNRSREQSSEAAETGVSENEENPVRIISVTPVKNIDPVKNKEINSDQATQGNISSDRGKKRTVTAAGAENIQQKTDEKVDESGPPAPSKPRRGRRPKSESQGNATKNDDLNKPINKGRKRAAVGQESPGGLEAGNAKAPKLQDLAKKAAPAERQIDLQR
modifications: JF646-HaloTag ligand on the HaloTag
For B3, the binding entry in assay [2] was “binds”.

For the origin of these results see publication doi:10.1101/2025.08.30.673243.
